Test results from publication PMC6093649.

Target: Chp2 chromodomain with the W199A mutation (Chp2-CD-W199A) (S. pombe)
Experiment: ITC; MicroCal VP-ITC, 20°C; Chp2-CD protein in 20 mM KPO4 pH 6.8, 100 mM NaCl; H3K9me3 peptide injected into the protein in 1-μl aliquots at 3-min intervals; both purified

- binding: binds weakly
B1: K9-trimethylated histone H3 (H3K9me3) peptide (1–18) (peptide)
peptide: ARTKQTARKSTGGKAPRY
modifications: trimethyl-lysine at position 9 (Lys[Me]3)

No constants are given. Whether binding was seen depends on the method and setting. A result given as binding can be weak or reduced; the word gives no strength. Tags and fused reporters may be left off the sequences shown.
